Results taken from the supplement of paper PMC9233669.
Variants at the background level are over-represented here.

Key:
[1] = system: biotinyl-Trp-oxazolone; assay: self-aminoacylation, catalytic enhancement (BWO) (fold over background); higher = more active; k-Seq, kA / k0A0; sequences stand for … in GGGAAUGGAUCCACAUCUACGAAUUC…UUCACUGCAGACUUGACGAAGCUG
Outline: (§1)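 Catalytic enhancement equals the median kA over the uncatalyzed rate, the latter read from the low-activity peak of a bimodal Gaussian fit. Values of kA came from fitting each sequence's fraction reacted to a pseudo-first-order model, with 1000 bootstraps. Reacted RNA was captured with streptavidin and quantified by triplicate qPCR and Illumina sequencing after 90 minutes at room temperature with 2–1250 μM biotinyl-aminoacyl-oxazolone and 0.43 μM mutagenized RNA pools bearing a 21-nt variable region.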

[2] = system: biotinyl-Leu-oxazolone; assay: self-aminoacylation, catalytic enhancement (BLO) (fold over background); higher = more active; k-Seq, kA / k0A0; sequences stand for … in GGGAAUGGAUCCACAUCUACGAAUUC…UUCACUGCAGACUUGACGAAGCUG
Outline: as §1

[3] = system: biotinyl-Val-oxazolone; assay: self-aminoacylation, catalytic enhancement (BVO) (fold over background); higher = more active; k-Seq, kA / k0A0; sequences stand for … in GGGAAUGGAUCCACAUCUACGAAUUC…UUCACUGCAGACUUGACGAAGCUG
Outline: as §1

[4] = system: biotinyl-Ile-oxazolone; assay: self-aminoacylation, catalytic enhancement (BIO) (fold over background); higher = more active; k-Seq, kA / k0A0; sequences stand for … in GGGAAUGGAUCCACAUCUACGAAUUC…UUCACUGCAGACUUGACGAAGCUG
Outline: as §1

[5] = system: biotinyl-Met-oxazolone; assay: self-aminoacylation, catalytic enhancement (BMO) (fold over background); higher = more active; k-Seq, kA / k0A0; sequences stand for … in GGGAAUGGAUCCACAUCUACGAAUUC…UUCACUGCAGACUUGACGAAGCUG
Outline: as §1

[6] = system: biotinyl-Phe-oxazolone; assay: self-aminoacylation, catalytic enhancement (BFO) (fold over background); higher = more active; k-Seq, kA / k0A0; sequences stand for … in GGGAAUGGAUCCACAUCUACGAAUUC…UUCACUGCAGACUUGACGAAGCUG
Outline: as §1

| Sequence | self-aminoacylation [1] | self-aminoacylation [2] | self-aminoacylation [3] | self-aminoacylation [4] | self-aminoacylation [5] | self-aminoacylation [6] |
| --- | --- | --- | --- | --- | --- | --- |
| AAGUUUGCUUAUAGUCACAAG [Fam3.1 aminoacylation ribozyme variant] | 1.06 | 0.776 | 1.23 | 1.14 | 0.955 | 1.25 |
| AAGUUUGCUUAUAGUCGGAAG [Fam3.1 aminoacylation ribozyme variant] | 1.14 | 0.751 | 0.725 | 0.812 | 0.828 | 1.44 |
| AAGUUUGGUAAUAGUAGCAAG [Fam3.1 aminoacylation ribozyme variant] | 0.787 | 0.878 | 0.882 | 1.01 | 1.08 | 0.668 |
| AAGUUUGGUAAUUGUCGCAAG [Fam3.1 aminoacylation ribozyme variant] | 1.04 | 1.14 | 1.08 | 1.22 | 1.2 | 1.19 |
| AAGUUUUCUAACAGUCGCAAG [Fam3.1 aminoacylation ribozyme variant] | 1.66 | 1.72 | 1.51 | 2.04 | 1.48 | 3.07 |
| AAGUUUUCUAAUAAUCGCAAG [Fam3.1 aminoacylation ribozyme variant] | 1.35 | 1.08 | 1.27 | 1.55 | 1.08 | 1.9 |
| AAGUUUUCUAAUAGUCGCAAA [Fam3.1 aminoacylation ribozyme variant] | 2.46 | 1.41 | 1.54 | 1.93 | 1.54 | 3.41 |
| AAGUUUUCUAAUAGUCGCAAC [Fam3.1 aminoacylation ribozyme variant] | 1.89 | 1.26 | 1.27 | 1.46 | 1.2 | 2.43 |
| AAUACCCUGGUCAUCGAGGGA [Fam2.1 aminoacylation ribozyme variant] | 1.85 | 1.58 | 1.94 | 1.51 | 1.18 | 1.13 |
| AAUACCCUGGUCAUCGAUUGA [Fam2.1 aminoacylation ribozyme variant] | 0.661 | 0.966 | 0.979 | 0.971 | 0.743 | 0.409 |
| AAUACCCUGGUCGUCGAGUGA [Fam2.1 aminoacylation ribozyme variant] | 0.531 | 0.857 | 0.796 | 0.776 | 0.516 | 0.434 |
| AAUCGCCUAGGUCAUCGGGUG [Fam2.2 aminoacylation ribozyme variant] | 10 | 9.78 | 8.02 | 6.97 | 10.4 | 72.9 |
| AAUUUUGCUAAUAGUCGCACG [Fam3.1 aminoacylation ribozyme variant] | 1.17 | 1.6 | 1.16 | 1.66 | 1.87 | 1.88 |
| ACACACAUCAAGCAAUCGGUC [Fam1B.1 aminoacylation ribozyme variant] | 1.37 | 1.17 | 1.17 | 1.3 | 1.14 | 1.9 |
| ACCCACUUCAAGCAAUCGGUC [Fam1B.1 aminoacylation ribozyme variant] | 15.2 | 1.37 | 1.29 | 1.11 | 1.15 | 23.3 |
| ACGUUGGCUAAUAGUCGCAAG [Fam3.1 aminoacylation ribozyme variant] | 1.55 | 1.77 | 1.22 | 1.55 | 1.61 | 1.63 |
| ACGUUUGCCAAUAGUCGCAAG [Fam3.1 aminoacylation ribozyme variant] | 1.65 | 2.16 | 1.67 | 1.73 | 2.04 | 6.32 |
| ACGUUUGCUAAUAGUCCCAAG [Fam3.1 aminoacylation ribozyme variant] | 1.4 | 0.928 | 0.859 | 1.05 | 1.31 | 2 |
| ACGUUUGCUAAUAGUCGCAUG [Fam3.1 aminoacylation ribozyme variant] | 1.87 | 2.5 | 1.97 | 2.21 | 2.14 | 3.06 |
| ACGUUUGCUAAUAUUCGCAAG [Fam3.1 aminoacylation ribozyme variant] | 1.67 | 1.38 | 1.47 | 1.57 | 1.29 | 1.17 |
| ACUCACCUAGGUCAUCAGGUG [Fam2.2 aminoacylation ribozyme variant] | 1.82 | 1.04 | 1.22 | 1.3 | 1.1 | 1.52 |
